Measured values taken from article PMC12597529, “Interaction between W41 of the hepatitis B virus preS1 surface peptide and Y146/F274 of the cellular receptor molecule Na^+/taurocholate co-transporting polypeptide is essential for virus entry” (Molecular Pharmacology, 2025).
These are yes or no findings as the source states them, for the method shown. Some results given as binding are weak or reduced against the parent protein; the word gives no strength.

Protein sequences, listed by entry. Tags and fused reporters are not part of them.
UniProt Q14973: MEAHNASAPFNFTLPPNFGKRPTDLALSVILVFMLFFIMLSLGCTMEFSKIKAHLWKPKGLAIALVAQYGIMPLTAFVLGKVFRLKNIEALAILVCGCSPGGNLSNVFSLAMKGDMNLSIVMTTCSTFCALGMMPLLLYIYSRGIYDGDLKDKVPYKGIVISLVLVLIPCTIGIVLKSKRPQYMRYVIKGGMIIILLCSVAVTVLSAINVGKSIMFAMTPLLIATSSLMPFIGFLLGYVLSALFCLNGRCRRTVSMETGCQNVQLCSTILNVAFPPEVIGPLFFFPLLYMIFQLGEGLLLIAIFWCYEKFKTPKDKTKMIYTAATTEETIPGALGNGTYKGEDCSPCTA

Columns and labels:
[1] = biological target: human Na+/taurocholate co-transporting polypeptide, wild type, FLAG-tagged, on NTCPwt-HEK293 cells (human) (UniProt Q14973); test: binding of a fluorescent peptide to cells, plate reader; only the binder purified
[2] = biological target: human Na+/taurocholate co-transporting polypeptide, wild type, FLAG-tagged, on NTCPwt-HEK293 cells (human) (UniProt Q14973); test: competition for binding of a fluorescent peptide to cells, plate reader; NTCP-HEK293 cells preincubated 20 minutes at 37 °C with unlabelled wild-type or W41G myr-preS1 peptide at 250, 500 or 1000 nM, then myr-preS1-AX568 10 nM for 20 minutes at 37 °C; Spark reader; only the binder purified
[3] = biological target: human Na+/taurocholate co-transporting polypeptide, wild type, FLAG-tagged, on NTCPwt-HEK293 cells (human) (UniProt Q14973); test: fluorescence microscopy of a labelled peptide bound to cells; myr-preS1-AX568 at 10 nM for 10 minutes at 37 °C on tetracycline-induced NTCPwt-HEK293 and NTCP-Y146A/F274A-HEK293 cells; washed, fixed, nuclei stained with Hoechst 33342; only the binder purified

Measured: binding

C-terminally Alexa 568 fluorophore-coupled myr-preS1 peptide, amino acids 2 to 48 of the large HBV g (from UniProt P03138 2-48)
binds: all assays above
